Drawing on article PMC11399395, this text covers binding for one substance.

Amino acid sequences for entries named in this document (tags omitted). A change or cut given only in a name is not applied to a line headed by its entry.
UniProt Q09472: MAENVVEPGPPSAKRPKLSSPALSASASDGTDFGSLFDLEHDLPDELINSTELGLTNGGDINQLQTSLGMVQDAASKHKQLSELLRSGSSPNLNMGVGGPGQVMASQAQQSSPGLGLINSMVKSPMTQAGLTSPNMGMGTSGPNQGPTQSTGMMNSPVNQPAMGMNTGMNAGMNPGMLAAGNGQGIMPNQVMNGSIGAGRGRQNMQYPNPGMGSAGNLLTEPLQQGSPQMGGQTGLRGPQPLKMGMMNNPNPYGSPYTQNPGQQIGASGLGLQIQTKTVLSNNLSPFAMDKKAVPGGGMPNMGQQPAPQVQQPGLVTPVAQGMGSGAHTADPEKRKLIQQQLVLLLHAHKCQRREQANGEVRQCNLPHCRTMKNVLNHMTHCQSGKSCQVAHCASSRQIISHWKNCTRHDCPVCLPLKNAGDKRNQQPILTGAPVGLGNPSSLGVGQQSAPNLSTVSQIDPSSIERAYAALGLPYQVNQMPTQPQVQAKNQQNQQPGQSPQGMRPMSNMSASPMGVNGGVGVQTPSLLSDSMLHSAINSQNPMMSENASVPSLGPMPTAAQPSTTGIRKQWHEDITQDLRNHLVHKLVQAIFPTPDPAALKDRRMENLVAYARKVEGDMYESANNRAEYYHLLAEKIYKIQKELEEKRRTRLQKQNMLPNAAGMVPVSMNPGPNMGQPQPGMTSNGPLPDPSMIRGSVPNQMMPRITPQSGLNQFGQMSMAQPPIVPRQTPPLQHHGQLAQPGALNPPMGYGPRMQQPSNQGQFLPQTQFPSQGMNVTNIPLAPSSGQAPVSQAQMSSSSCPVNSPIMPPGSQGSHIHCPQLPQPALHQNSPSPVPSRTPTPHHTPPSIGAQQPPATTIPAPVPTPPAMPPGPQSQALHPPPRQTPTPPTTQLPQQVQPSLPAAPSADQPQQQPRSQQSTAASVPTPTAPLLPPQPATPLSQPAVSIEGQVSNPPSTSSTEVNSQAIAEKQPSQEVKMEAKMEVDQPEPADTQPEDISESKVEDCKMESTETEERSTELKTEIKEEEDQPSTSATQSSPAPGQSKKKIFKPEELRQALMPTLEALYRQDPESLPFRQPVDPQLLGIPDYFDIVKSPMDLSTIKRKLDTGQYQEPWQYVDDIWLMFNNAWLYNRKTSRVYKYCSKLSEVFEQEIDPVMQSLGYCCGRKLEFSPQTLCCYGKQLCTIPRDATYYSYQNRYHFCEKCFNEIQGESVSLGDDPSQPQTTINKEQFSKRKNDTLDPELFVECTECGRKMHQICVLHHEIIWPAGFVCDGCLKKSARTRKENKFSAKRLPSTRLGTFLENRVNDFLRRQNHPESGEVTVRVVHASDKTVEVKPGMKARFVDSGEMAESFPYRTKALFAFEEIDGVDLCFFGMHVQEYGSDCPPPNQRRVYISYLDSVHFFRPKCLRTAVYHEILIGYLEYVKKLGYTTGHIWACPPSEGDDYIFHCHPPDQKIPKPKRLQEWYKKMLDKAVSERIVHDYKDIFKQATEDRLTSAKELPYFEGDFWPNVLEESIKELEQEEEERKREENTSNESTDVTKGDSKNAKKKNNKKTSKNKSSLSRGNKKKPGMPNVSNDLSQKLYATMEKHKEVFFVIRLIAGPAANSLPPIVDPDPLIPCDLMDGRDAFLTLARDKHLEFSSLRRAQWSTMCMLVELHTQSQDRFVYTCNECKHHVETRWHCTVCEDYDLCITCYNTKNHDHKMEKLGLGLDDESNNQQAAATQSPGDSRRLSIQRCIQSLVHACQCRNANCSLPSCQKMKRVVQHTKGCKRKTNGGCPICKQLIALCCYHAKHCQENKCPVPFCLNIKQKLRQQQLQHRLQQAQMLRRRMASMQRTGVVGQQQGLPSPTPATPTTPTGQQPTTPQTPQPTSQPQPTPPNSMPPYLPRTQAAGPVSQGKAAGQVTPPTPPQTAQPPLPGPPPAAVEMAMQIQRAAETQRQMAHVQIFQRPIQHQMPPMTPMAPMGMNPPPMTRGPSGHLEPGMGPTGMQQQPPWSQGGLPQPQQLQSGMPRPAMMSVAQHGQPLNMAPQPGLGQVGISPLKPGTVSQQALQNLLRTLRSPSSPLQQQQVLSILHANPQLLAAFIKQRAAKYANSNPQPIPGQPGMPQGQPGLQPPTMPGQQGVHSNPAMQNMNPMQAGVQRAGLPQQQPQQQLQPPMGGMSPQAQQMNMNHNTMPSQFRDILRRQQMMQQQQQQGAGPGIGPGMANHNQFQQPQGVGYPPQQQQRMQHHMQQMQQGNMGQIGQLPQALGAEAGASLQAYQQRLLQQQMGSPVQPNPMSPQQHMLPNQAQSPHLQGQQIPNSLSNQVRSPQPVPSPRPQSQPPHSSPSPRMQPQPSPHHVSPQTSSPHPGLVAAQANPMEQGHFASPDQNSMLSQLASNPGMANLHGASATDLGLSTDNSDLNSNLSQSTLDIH

For this experiment, the target named is runt-related transcription factor 1 (RUNX1) (human (endogenous in THP-1)) (UniProt Q01196). Put plainly: proximity ligation; Duolink In Situ PLA in THP-1 cells (NTC control and SMANTIS knockout), fixed with 4% PFA, permeabilised with 0.05% Triton X-100; goat anti-RUNX1 (MINUS) with rabbit anti-EP300, anti-SIN3A or anti-CBFB (PLUS); signals counted in nucleus and cytoplasm.

No constants are given. Whether binding was seen depends on the method and setting. Binding seen in cells or lysates may run through a third protein. Some results given as binding are weak or reduced against the parent protein; the word gives no strength.

Consider “E1A Binding Protein P300 (EP300) (from UniProt Q09472 1-2414)”, for which the binding entry is listed as “binds”.
